The record followed here is article PMC12292949.

Sequences of proteins named here, by UniProt entry; tags and fusion partners are left off.
UniProt Q92922: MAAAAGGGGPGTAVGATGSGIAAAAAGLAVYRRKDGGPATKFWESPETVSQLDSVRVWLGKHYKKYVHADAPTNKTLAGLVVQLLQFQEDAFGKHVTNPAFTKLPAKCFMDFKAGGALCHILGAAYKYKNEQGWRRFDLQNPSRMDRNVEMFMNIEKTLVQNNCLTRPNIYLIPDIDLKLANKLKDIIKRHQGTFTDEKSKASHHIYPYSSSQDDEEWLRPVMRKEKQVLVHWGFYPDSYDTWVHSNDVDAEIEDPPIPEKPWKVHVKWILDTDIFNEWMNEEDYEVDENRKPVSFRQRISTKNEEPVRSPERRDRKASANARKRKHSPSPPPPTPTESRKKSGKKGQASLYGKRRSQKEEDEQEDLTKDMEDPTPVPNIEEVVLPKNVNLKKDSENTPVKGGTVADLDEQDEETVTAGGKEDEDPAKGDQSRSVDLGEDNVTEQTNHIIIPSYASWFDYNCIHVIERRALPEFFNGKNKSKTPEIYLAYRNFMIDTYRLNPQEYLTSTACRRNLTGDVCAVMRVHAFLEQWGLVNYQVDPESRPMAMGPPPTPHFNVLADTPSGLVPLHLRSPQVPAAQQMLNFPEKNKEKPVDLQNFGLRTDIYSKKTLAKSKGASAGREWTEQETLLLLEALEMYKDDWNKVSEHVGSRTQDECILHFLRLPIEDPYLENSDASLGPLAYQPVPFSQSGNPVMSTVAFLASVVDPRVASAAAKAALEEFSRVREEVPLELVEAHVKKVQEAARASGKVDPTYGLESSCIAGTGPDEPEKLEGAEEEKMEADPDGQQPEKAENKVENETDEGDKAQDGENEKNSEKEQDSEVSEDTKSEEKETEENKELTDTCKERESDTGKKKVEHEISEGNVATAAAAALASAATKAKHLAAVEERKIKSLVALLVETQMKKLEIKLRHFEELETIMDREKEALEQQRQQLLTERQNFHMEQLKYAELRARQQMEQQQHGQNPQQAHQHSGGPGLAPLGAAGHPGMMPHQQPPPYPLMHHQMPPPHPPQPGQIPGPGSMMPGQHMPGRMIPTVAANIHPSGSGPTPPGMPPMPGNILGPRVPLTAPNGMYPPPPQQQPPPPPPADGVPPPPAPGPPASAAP
UniProt Q969G3: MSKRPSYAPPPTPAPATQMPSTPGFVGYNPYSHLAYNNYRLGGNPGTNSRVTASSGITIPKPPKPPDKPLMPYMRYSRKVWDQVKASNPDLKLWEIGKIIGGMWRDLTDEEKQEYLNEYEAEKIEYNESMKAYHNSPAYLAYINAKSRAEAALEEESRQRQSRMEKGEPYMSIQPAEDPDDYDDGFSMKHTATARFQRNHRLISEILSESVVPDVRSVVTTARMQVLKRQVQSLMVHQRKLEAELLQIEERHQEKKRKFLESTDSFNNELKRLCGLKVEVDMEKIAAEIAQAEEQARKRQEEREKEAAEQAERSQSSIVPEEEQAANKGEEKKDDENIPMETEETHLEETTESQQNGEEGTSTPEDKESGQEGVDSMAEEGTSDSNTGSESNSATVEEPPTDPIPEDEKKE

No constants are given. Whether binding was seen depends on the method and setting. In cells and extracts the contact can be indirect. Some results given as binding are weak or reduced against the parent protein; the word gives no strength.

Assay [1] has as its target T1, unmodified H2A.B N-terminal peptide (human).
T1 sequence (peptide, C-terminally biotinylated): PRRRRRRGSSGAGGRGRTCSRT
As to the kind of experiment: pull-down; biotinylated unmodified or R7me2a H2A.B N-terminal peptides on streptavidin beads, nuclear extracts from L428 cells, Western blot; only the target purified.

The target of assay [2] is T2, H2A.B N-terminal peptide asymmetrically dimethylated at R7 (human).
T2 sequence (peptide, asymmetric dimethylarginine (ADMA) at R7; C-terminally biotinylated): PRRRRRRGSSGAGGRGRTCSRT
The assay is described as above.

“SMARCC1 (endogenous) (from UniProt Q92922 1-1105)”: the binding entry in assay [1] and in assay [2] was “binds” each time.

For “SMARCE1 (endogenous) (from UniProt Q969G3 1-411)”, the binding entry in assay [1] and in assay [2] was “binds” throughout.

B1: TRA2B (endogenous) (protein, UniProt P62995 1-288)
chain: MSDSGEQNYGERESRSASRSGSAHGSGKSARHTPARSRSKEDSRRSRSKSRSRSESRSRSRRSSRRHYTRSRSRSRSHRRSRSRSYSRDYRRRHSHSHSPMSTRRRHVGNRANPDPNCCLGVFGLSLYTTERDLREVFSKYGPIADVSIVYDQQSRRSRGFAFVYFENVDDAKEAKERANGMELDGRRIRVDFSITKRPHTPTPGIYMGRPTYGSSRRRDYYDRGYDRGYDDRDYYSRSYRGGGGGGGGWRAAQDRDQIYRRRSPSPYYSRGGYRSRSRSRSYSPRRY
B1: the binding result in assay [1] is reported as “binds”.
